# The supplement of paper PMC6411743
# ± gives the standard deviation of the averaged measurements. The list shows a part of the results.
# Key:
# Experiment in all cases: NP40-soluble protein abundance relative to vehicle (solubility fold change) (ratio); higher = more soluble protein in presence of GTP
# [1] = target: T1, UniProt Q96AX2 and related entries
# T1 sequence (whole entry): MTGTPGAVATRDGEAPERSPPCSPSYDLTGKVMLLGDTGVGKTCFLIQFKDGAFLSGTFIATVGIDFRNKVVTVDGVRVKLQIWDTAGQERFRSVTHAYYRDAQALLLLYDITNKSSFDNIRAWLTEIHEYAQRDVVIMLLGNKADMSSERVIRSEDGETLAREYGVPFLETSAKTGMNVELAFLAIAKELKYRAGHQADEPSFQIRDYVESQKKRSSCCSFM
# In short: (§1)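 Values are fold changes against the detergent-processed vehicle, based on vsn-normalised intensities. Jurkat crude lysate was treated at eight concentrations from 0.1 to 10 mM (10 min at room temperature, then 3 min at 37 °C), solubilised with 0.8% NP40 and benzonase, ultracentrifuged and analysed by TMT-labelled LC-MS/MS over three independent experiments.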
# [2] = target: T2, UniProt Q96BZ9 and related entries
# T2 sequence (whole entry): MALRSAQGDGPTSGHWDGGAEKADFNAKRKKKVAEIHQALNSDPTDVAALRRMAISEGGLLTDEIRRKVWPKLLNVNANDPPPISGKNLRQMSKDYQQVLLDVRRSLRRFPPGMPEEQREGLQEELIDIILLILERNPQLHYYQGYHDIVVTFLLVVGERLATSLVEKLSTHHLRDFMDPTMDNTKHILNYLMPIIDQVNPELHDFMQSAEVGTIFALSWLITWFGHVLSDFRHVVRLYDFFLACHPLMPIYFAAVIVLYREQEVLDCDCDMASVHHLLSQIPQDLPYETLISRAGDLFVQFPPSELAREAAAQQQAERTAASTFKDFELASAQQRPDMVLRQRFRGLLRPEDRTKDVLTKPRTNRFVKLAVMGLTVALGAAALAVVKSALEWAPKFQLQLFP
# In short: as §1
# [3] = target: T3, UniProt Q96F46 and related entries
# T3 sequence (whole entry): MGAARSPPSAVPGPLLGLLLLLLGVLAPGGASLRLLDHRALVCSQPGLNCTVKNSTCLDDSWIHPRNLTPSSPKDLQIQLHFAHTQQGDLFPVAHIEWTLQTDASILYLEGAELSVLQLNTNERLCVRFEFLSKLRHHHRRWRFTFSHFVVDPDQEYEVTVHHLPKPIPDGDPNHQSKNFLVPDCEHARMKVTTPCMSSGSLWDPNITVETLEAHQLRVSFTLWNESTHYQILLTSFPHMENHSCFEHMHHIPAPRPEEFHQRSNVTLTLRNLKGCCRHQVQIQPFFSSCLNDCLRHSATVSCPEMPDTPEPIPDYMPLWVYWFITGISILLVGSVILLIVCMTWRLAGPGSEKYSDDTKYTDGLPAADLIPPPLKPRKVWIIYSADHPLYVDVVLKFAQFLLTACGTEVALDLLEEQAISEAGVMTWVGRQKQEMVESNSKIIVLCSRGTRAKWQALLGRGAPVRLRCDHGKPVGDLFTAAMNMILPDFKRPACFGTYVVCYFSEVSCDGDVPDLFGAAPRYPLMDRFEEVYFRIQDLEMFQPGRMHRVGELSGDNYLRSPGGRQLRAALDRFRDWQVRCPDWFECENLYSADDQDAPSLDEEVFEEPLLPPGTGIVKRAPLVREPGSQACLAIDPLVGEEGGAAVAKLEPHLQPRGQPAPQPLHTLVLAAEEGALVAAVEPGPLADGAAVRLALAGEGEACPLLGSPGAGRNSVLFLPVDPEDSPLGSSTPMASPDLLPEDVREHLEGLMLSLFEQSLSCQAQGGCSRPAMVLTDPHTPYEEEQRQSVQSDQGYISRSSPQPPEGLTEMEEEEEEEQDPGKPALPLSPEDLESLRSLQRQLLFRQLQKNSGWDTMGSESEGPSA
# In short: as §1
# [4] = target: T4, UniProt Q96FZ7 and related entries
# T4 sequence (whole entry): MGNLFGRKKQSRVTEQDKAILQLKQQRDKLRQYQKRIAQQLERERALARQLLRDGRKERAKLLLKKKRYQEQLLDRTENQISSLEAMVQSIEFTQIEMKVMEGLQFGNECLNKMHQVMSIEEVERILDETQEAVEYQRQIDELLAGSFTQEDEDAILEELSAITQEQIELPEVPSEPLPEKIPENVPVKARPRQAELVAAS
# In short: as §1
# UniProt Q96GS4 = target: T5, UniProt Q96GS4
# T5 sequence (whole entry): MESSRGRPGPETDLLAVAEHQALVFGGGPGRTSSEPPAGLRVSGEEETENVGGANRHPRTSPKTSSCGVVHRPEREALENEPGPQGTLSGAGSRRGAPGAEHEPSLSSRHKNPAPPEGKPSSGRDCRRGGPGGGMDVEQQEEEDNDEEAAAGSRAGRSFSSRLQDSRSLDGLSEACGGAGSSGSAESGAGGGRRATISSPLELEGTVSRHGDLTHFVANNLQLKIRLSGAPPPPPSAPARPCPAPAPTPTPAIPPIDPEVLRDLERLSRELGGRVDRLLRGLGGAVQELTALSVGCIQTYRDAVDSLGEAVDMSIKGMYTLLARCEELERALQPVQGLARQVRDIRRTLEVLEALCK
# In short: as §1
# WASF1 = target: T6, WASF1 (UniProt Q92558)
# T6 sequence (whole entry): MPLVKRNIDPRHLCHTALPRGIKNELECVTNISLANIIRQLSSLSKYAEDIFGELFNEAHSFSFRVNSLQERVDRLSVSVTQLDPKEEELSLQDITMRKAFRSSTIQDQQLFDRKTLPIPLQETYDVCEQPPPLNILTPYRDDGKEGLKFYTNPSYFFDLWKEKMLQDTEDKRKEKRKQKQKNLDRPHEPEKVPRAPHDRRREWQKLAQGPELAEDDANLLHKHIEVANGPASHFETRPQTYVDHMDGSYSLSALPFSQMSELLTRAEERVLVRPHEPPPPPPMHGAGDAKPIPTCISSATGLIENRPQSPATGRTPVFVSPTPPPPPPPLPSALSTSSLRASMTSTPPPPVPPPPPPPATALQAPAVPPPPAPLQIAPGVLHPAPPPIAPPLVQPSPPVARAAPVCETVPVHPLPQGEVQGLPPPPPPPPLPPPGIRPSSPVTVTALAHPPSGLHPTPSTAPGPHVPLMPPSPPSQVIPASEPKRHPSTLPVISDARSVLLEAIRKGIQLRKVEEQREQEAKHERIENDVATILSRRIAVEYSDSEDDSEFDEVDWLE
# In short: as §1
compound,measurement,setting,value
Nc1nc2c(ncn2[C@@H]2O[C@H](COP(=O)(O)OP(=O)(O)OP(=O)(O)O)[C@@H](O)[C@H]2O)c(=O)[nH]1 [guanosine triphosphate],NP40-soluble protein abundance,[1]; concentration: 8mM,0.977 ± 0.15
same,NP40-soluble protein abundance,[1]; concentration: 10mM,0.906 ± 0.15
same,NP40-soluble protein abundance,[2]; concentration: 0.1mM,0.995 ± 0.14
same,NP40-soluble protein abundance,[2]; concentration: 0.5mM,0.959 ± 0.11
same,NP40-soluble protein abundance,[2]; concentration: 1mM,0.984 ± 0.14
same,NP40-soluble protein abundance,[2]; concentration: 2mM,1.01 ± 0.17
same,NP40-soluble protein abundance,[2]; concentration: 4mM,0.97 ± 0.073
same,NP40-soluble protein abundance,[2]; concentration: 6mM,0.966 ± 0.1
same,NP40-soluble protein abundance,[2]; concentration: 8mM,1.08 ± 0.24
same,NP40-soluble protein abundance,[2]; concentration: 10mM,0.999 ± 0.081
same,NP40-soluble protein abundance,[3]; concentration: 0.1mM,1.03 ± 0.093
same,NP40-soluble protein abundance,[3]; concentration: 0.5mM,1.06 ± 0.12
same,NP40-soluble protein abundance,[3]; concentration: 1mM,1.05 ± 0.076
same,NP40-soluble protein abundance,[3]; concentration: 2mM,0.963 ± 0.088
same,NP40-soluble protein abundance,[3]; concentration: 4mM,1.04 ± 0.098
same,NP40-soluble protein abundance,[3]; concentration: 6mM,1.02 ± 0.049
same,NP40-soluble protein abundance,[3]; concentration: 8mM,1 ± 0.013
same,NP40-soluble protein abundance,[3]; concentration: 10mM,1.11 ± 0.097
same,NP40-soluble protein abundance,[4]; concentration: 0.1mM,0.955 ± 0.12
same,NP40-soluble protein abundance,[4]; concentration: 0.5mM,0.871 ± 0.056
same,NP40-soluble protein abundance,[4]; concentration: 1mM,0.993 ± 0.11
same,NP40-soluble protein abundance,[4]; concentration: 2mM,1.06 ± 0.1
same,NP40-soluble protein abundance,[4]; concentration: 4mM,1.03 ± 0.1
same,NP40-soluble protein abundance,[4]; concentration: 6mM,1.03 ± 0.076
same,NP40-soluble protein abundance,[4]; concentration: 8mM,0.885 ± 0.26
same,NP40-soluble protein abundance,[4]; concentration: 10mM,1.15 ± 0.14
same,NP40-soluble protein abundance,UniProt Q96GS4; concentration: 0.1mM,0.961 ± 0.069
same,NP40-soluble protein abundance,UniProt Q96GS4; concentration: 0.5mM,0.948 ± 0.12
same,NP40-soluble protein abundance,UniProt Q96GS4; concentration: 1mM,1.06 ± 0.13
same,NP40-soluble protein abundance,UniProt Q96GS4; concentration: 2mM,1.02 ± 0.097
same,NP40-soluble protein abundance,UniProt Q96GS4; concentration: 4mM,0.996 ± 0.16
same,NP40-soluble protein abundance,UniProt Q96GS4; concentration: 6mM,1.01 ± 0.1
same,NP40-soluble protein abundance,UniProt Q96GS4; concentration: 8mM,0.994 ± 0.097
same,NP40-soluble protein abundance,UniProt Q96GS4; concentration: 10mM,0.975 ± 0.068
same,NP40-soluble protein abundance,WASF1; concentration: 0.1mM,1 ± 0.082
same,NP40-soluble protein abundance,WASF1; concentration: 0.5mM,1.02 ± 0.096
same,NP40-soluble protein abundance,WASF1; concentration: 1mM,1.06 ± 0.11
same,NP40-soluble protein abundance,WASF1; concentration: 2mM,1.04 ± 0.13
same,NP40-soluble protein abundance,WASF1; concentration: 4mM,1.03 ± 0.17
same,NP40-soluble protein abundance,WASF1; concentration: 6mM,1.05 ± 0.1
same,NP40-soluble protein abundance,WASF1; concentration: 8mM,1.11 ± 0.064
same,NP40-soluble protein abundance,WASF1; concentration: 10mM,1.07 ± 0.096
